Values of other authors in patent US5214156A, “Therapeutically useful tetralin derivatives” (The Upjohn Company, priority 1992, dated 1993).
At least one structure is not confirmed: it was looked up by name or label, or the drawing left a doubt.

Tested on: 5-HT neurons
Details: background; cited from earlier work

CN(C)C/C=C(/c1ccc(Br)cc1)c1cccnc1 [zimelidine, dimethylamino-1-(4-bromophenyl)-1-(3-pyridyl)propene]
5-HT reuptake inhibition selectivity: reuptake inhibitor with high selectivity for 5-HT neurons
